No constants are given. Whether binding was seen depends on the method and setting. Some entries that bind do so weakly or less than the wild type.
B1: CD4001132 (Fc fusion, not shown: a dimerising Fc or GST)
chain: DVQMTQSPILLSASVGDRVTITCRSSQSLVHYNGYTYVHWYQQKPGKAPKLLIYKVSNLFSGVPSRFSGSGSGTDFTLTISSLQPEDIADYFCQQTTHVPLTFGAGTKVEIKGGGGSGGGGSGGGGSGGGGSEVQLVESGGGLVQPGGSLRLSCAASGFTFSSYAMSWVRQAPGKGLEWVSAISSAGTYIYYADSVKGRFTISRDNSKNTLYLQMNSLRAEDTAVYYCARHGNGYDPLWYFDVWGQGTTVTVSS
B2: CD4001089 (Fc fusion, not shown: a dimerising Fc or GST)
chain: DVQMTQSPILLSASVGDRVTITCRSSQSLVHYNGYTYVHWYQQRTNGSPRLLIYKVSNRFSGVPDRFSGSGSGTDFTLTISSLQPEDIADYFCQQTTHVPLTFGAGTKVEIKGGGGSGGGGSGGGGSGGGGSEVQLVESGGGLVQPGRSLRLSCAASGFTFSSYAMSWVRQAPGKGLEWVASISSAGTYIYYADSVQGRFTISRDNGKNSLYLQMNSLRAEDTALYYCARHGNGYDPLWYFDVWGQGTMVTVSS

Sequences of proteins named here, by UniProt entry; tags and fusion partners are left off. A change or cut given only in a name is not applied to a line headed by its entry.
UniProt P25942: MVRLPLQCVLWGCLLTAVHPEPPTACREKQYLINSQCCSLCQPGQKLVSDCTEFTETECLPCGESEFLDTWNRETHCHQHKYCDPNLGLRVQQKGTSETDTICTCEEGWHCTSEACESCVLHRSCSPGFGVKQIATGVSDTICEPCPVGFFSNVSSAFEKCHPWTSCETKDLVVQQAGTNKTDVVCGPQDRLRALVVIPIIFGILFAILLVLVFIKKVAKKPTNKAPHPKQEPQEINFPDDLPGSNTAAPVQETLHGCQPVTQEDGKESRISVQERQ

Columns and labels:
[1] = molecular target: human CD40 full-length (human) (UniProt P25942); assay: flow cytometry, CHOK1SV/human CD40 cells
[2] = molecular target: human CD40 full-length (human) (UniProt P25942); assay: binding to cells expressing full length human- or cyno-CD40, unpurified small-scale material

Binder	binding [1]	binding [2]
B1	binds	–
B2	binds	binds
